Values from PubChem BioAssay AID1159584 (Peter MacCallum Cancer Centre, 2016)

- Purpose: 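Genes whose loss is lethal only together with E-cadherin loss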 (primary screen)
- System: human MCF10A breast epithelial cells, parental and CDH1-null
- Knock-down reagent: siRNA against human genes
- Read-out: 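ATP luminescence (CellTiter-Glo) viability per line relative to mean mock wells over all plates, and the ratio of CDH1-null to parental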
- Reading the numbers: CDH1-null / parental viability ratio: higher = CDH1-null cells survive relatively better than parental
The whole screen tested about 18,000 reagents; below is an unselected part. Further read-outs or replicates are left out here. The record does not give: the amount of reagent, the time to read-out.

CDH1-null / parental viability ratio | gene
1.54 | SAMD8 (GeneID 142891)
0.81 | KNDC1 (GeneID 85442)
0.88 | IRF3 (GeneID 3661)
0.93 | ADAM32 (GeneID 203102)
1.2 | SCRN1 (GeneID 9805)
0.8 | ZMIZ2 (GeneID 83637)
0.92 | ALDH1A3 (GeneID 220)
0.85 | PMS2P5 (GeneID 5383)
1.1 | HPR (GeneID 3250)
1.03 | VSX2 (GeneID 338917)
0.95 | KRT23 (GeneID 25984)
1.18 | RTN4R (GeneID 65078)
1.17 | EPYC (GeneID 1833)
1.02 | TMEM38A (GeneID 79041)
1.09 | NUCKS1 (GeneID 64710)
0.95 | LINC02897 (GeneID 388759)
1.31 | GABRG2 (GeneID 2566)
1.02 | SLFN11 (GeneID 91607)
1.04 | TH (GeneID 7054)
0.76 | CDK12 (GeneID 51755)
0.9 | PAIP1 (GeneID 10605)
0.62 | ZNF528 (GeneID 84436)
0.81 | OSR2 (GeneID 116039)
0.87 | PEX6 (GeneID 5190)
0.95 | FAM167B (GeneID 84734)
0.82 | RHBG (GeneID 57127)
1.07 | DISP2 (GeneID 85455)
1.27 | PPP1R9B (GeneID 84687)
1.18 | GDI1 (GeneID 2664)
0.87 | MUL1 (GeneID 79594)
1.13 | ZNF551 (GeneID 90233)
1.04 | PLD3 (GeneID 23646)
0.94 | SENP6 (GeneID 26054)
0.83 | METTL4 (GeneID 64863)
0.92 | SALL3 (GeneID 27164)
1.08 | ALOXE3 (GeneID 59344)
2.02 | SSX5 (GeneID 6758)
0.87 | BACH1 (GeneID 571)
1.03 | WBP1 (GeneID 23559)
0.62 | ZNF354B (GeneID 117608)
1.08 | NEURL2 (GeneID 140825)
0.97 | CRABP2 (GeneID 1382)
1.07 | LOXL1 (GeneID 4016)
1.11 | KCTD14 (GeneID 65987)
0.84 | PACSIN1 (GeneID 29993)
1.65 | ASIP (GeneID 434)
1.09 | SCN4A (GeneID 6329)
1.04 | EIF2AK1 (GeneID 27102)
1.42 | PTP4A3 (GeneID 11156)
0.98 | GIMAP1 (GeneID 170575)
1.18 | NCAN (GeneID 1463)
0.92 | YPEL3 (GeneID 83719)
1.07 | KATNIP (GeneID 23247)
0.83 | MRPS18A (GeneID 55168)
0.97 | EPHA8 (GeneID 2046)
0.74 | C1orf162 (GeneID 128346)
1.21 | CACNB3 (GeneID 784)
1.31 | GOLGA8A (GeneID 23015)
0.71 | ZNF354C (GeneID 30832)
0.95 | OPRD1 (GeneID 4985)
1.17 | MYCT1 (GeneID 80177)
0.85 | RBM11 (GeneID 54033)
1.13 | PLPPR3 (GeneID 79948)
0.78 | SORCS3 (GeneID 22986)
0.94 | SPRR1B (GeneID 6699)
1.15 | CEP135 (GeneID 9662)
0.79 | NR4A1 (GeneID 3164)
1.14 | C15orf32 (GeneID 145858)

4 of these entries, reformatted:
{"gene": "HPR (GeneID 3250)", "CDH1-null / parental viability ratio": 1.1}
{"gene": "VSX2 (GeneID 338917)", "CDH1-null / parental viability ratio": 1.03}
{"gene": "KRT23 (GeneID 25984)", "CDH1-null / parental viability ratio": 0.95}
{"gene": "RTN4R (GeneID 65078)", "CDH1-null / parental viability ratio": 1.18}
